The list shows a part of the results. Further columns of the screen follow, without active or inactive calls. Most of these compounds were active or inconclusive in the main read-out, so they are no random draw. Words in brackets tell the shape of the fitted curve; partial curves, single points and poor fits give uncertain potencies.
Experiment: qHTS Assay for Lipid Storage Modulators in Drosophila S3 Cells;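 as to cell number change: cells counted by Cell Tracker Red CMTPX staining in the red channel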
Details: BODIPY lipid droplet fluorescence, 18-24 h; for cell number change: measured here: cell count max response, cells fed with added oleic acid
In short: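 Laser-scanning cytometry quantifies lipid droplet accumulation (500–530 nm total intensity; droplet/cell object ratio) in oleic acid-fed (400 uM added) Drosophila S3 cells treated with a concentration series. 20 uM Triacsin C defined 100% inhibition.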

[1] = measured here: lipid fluorescence (Fed channel) AC50, cells fed with added oleic acid
[2] = measured here: cell number channel AC50, cells fed with added oleic acid

Structure (SMILES) | cell number change [%] | AC50 [1] | AC50 [2]
COc1ccccc1-c1noc(Cn2cc(S(=O)(=O)N3CCCC3)ccc2=O)n1 | 4.42 | – | –
Cc1nc2ccccn2c(=O)c1NC(=O)c1cccc2ccccc12 | – | 6.51 µM [rising, single point] | –
Cc1ccc(CNC(=O)C2CCC(=O)N(CCc3cccc(F)c3)C2)s1 (centres undefined) | -4.97 | 6.51 µM [falling, single point] | –
Cc1ccc(NC(=S)NNC(=O)c2nn(C)cc2Cl)cc1 | -18.9 | 0.58 µM [falling, full curve, poor fit] | –
Cc1ccccc1CN1CCC(Oc2ccc(C(=O)NCc3ccccn3)cc2)CC1 | -13.1 | – | –
c1ccc(N2CCOCC2)c(Nc2nc3ccccc3n3cnnc23)c1 | – | – | 0.58 µM [rising, single point]
CCCCn1c(N)c(N(CC(C)C)C(=O)CN2C(=O)NC3(CC(C)CC(C)(C)C3)C2=O)c(=O)[nH]c1=O (centres undefined) | 5.97 | – | –
COCCNS(=O)(=O)c1ccc(Cl)c(C(=O)NC2CCN(Cc3ccccc3)CC2)c1 | – | – | 0.231 µM [rising, full curve]
O=C(CCNS(=O)(=O)c1ccccc1)N1CCN(c2ccccc2F)CC1 | 8.78 | 0.0731 µM [rising, full curve, poor fit] | 0.164 µM [rising, full curve]
CC(=O)c1ccc(NC(=O)CNCC(c2ccccc2)N(C)C)cc1 (centres undefined) | -5.73 | 0.291 µM [falling, full curve, poor fit] | –
COc1ccc(OCCSc2nc(C)nc3ccccc23)cc1 | 6.95 | – | –
CCOC(=O)N1CCN(Cc2nc(N)nc(Nc3ccc(Cl)cc3)n2)CC1 | 21.1 | 16.4 µM [rising, single point] | –
Cc1noc(C)c1S(=O)(=O)N1CCC(C(=O)N2CCN(C(=O)c3ccco3)CC2)CC1 | 4.73 | – | –
Cc1ccc(-c2cc(C(=O)N/N=C/c3cccnc3)n[nH]2)o1 | -2.18 | 2.06 µM [rising, partial curve] | –
O=C(O)c1cccc(NS(=O)(=O)c2ccc(NC(=O)c3ccco3)cc2)c1 | 78 | – | 0.00411 µM [rising, full curve, poor fit]
N#Cc1ccc(NC(=O)COC(=O)c2ccc(F)c(S(=O)(=O)N3CCOCC3)c2)cc1 | 7.22 | 0.517 µM [rising, single point] | –
O=C(O)C1CCCCC1C(=O)NCc1ccc(F)cc1 (centres undefined) | -26.3 | – | 4.11 µM [falling, full curve, poor fit]
COc1ccc(OCC(=O)Nc2cc(S(=O)(=O)N3CCCC3)ccc2OCC(F)(F)F)cc1 | -5.62 | – | –
Cc1cc(NC(=O)C2CCCN(S(=O)(=O)c3c(C)noc3C)C2)n[nH]1 (centres undefined) | -1.1 | – | –
CC1CCN(C(=O)C(C)c2ccc([N+](=O)[O-])cc2)CC1 (centres undefined) | -7.46 | – | –

Structure (SMILES) | cell number change [%] | AC50 [1] | AC50 [2]
COc1ccc(/C=C2/SC(c3ccc(C)cc3)=NC2=O)cc1OC | – | 29.1 µM [rising, single point] | –
COc1ccc(OCc2nnc(SCC(=O)Nc3nnc(C4CC4)s3)n2C)cc1 | 2.1 | 29.1 µM [falling, single point] | –
O=C(Oc1ccc(F)cc1C(=O)/C=C/c1cccs1)c1cccc([N+](=O)[O-])c1 | -17.5 | – | –
COc1ccc(-c2csc(/N=C/N(C)C)n2)cc1OC | – | 0.103 µM [rising, partial curve, poor fit] | 0.116 µM [rising, single point]
Cc1ccc(NC(=O)NCCN2CCCCC2)cc1C | 9.33 | 0.731 µM [falling, single point] | –
O=C(Nc1ccccc1)OC1CCC2CC1CCC2OC(=O)Nc1ccccc1 (centres undefined) | 10.9 | 1.64 µM [rising, full curve] | 1.46 µM [rising, full curve, poor fit]
O=C(CCNC(=O)c1ccc([N+](=O)[O-])cc1)Nc1ccc(N2CCOCC2)cc1N1CCOCC1 | -48.3 | – | 29.1 µM [falling, single point]
CO/N=C/C(C#N)=C/c1ccc(OC)c(OC)c1 | 29 | 2.59 µM [rising, full curve] | –
CSCCC(NC(=O)c1ccccc1)C(=O)NNC(=O)c1csc(N2CCOCC2)n1 (centres undefined) | -12.7 | 29.1 µM [rising, single point] | –
C=CCNC1=C(Cl)C(=O)c2ccccc2C1=O | -10.7 | 3.26 µM [falling, single point] | 6.51 µM [falling, single point]
CCc1ccc(-c2nc(CS(=O)CC(=O)O)c(C)o2)cc1 (centres undefined) | – | 23.1 µM [falling, single point] | –
O=S(=O)(/N=C(/Nc1ccccc1)c1ccccc1O)c1ccccc1 | 30.5 | – | 16.4 µM [rising, single point]
CC[C@@H](C)[C@@H](C(=O)N1CCN(C(=O)OC(C)(C)C)CC1)n1cc(CCCCNC(=O)OC(C)(C)C)nn1 | -37.5 | 20.6 µM [falling, partial curve] | 8.2 µM [falling, partial curve, poor fit]
CSc1nc(-c2ccco2)nn1C(=O)c1ccccc1 | -5.03 | – | –
Cc1ccc(C23CC4CC(CC(C(=O)NC(C(=O)O)C(C)C)(C4)C2)C3)cc1 (centres undefined) | -10.1 | 2.31 µM [falling, single point] | –
N#C/C(=N\Nc1c(Cl)cccc1Cl)C(=O)NN | 7.2 | – | –
CC1(C)C(C=C(Cl)Cl)C1C(=O)Nc1ccc([N+](=O)[O-])cc1 (centres undefined) | -33.3 | 29.1 µM [falling, partial curve, poor fit] | 32.6 µM [falling, single point]
COc1cccc(NC(=O)CN(C)C(=O)c2ccc3c(c2)S(=O)(=O)N=C2CCCCCN23)c1 | 16.6 | 0.651 µM [falling, full curve, poor fit] | –
O=C(COc1cc(Cl)c(Cl)cc1Cl)NC(=O)NC1CCCC1 | -40.3 | – | 29.1 µM [falling, single point]
CCOc1ccc(N(CC(=O)NC2CCC(C)CC2)S(=O)(=O)c2c(C)noc2C)cc1 (centres undefined) | -22.4 | 0.58 µM [falling, single point] | –

Nothing new here: entries from further up.
Structure (SMILES) | cell number change [%] | AC50 [1] | AC50 [2]
O=C(O)c1cccc(NS(=O)(=O)c2ccc(NC(=O)c3ccco3)cc2)c1 | 78 | – | 0.00411 µM [rising, full curve, poor fit]
N#Cc1ccc(NC(=O)COC(=O)c2ccc(F)c(S(=O)(=O)N3CCOCC3)c2)cc1 | 7.22 | 0.517 µM [rising, single point] | –

Reference: PubChem BioAssay AID2685 (National Center for Advancing Translational Sciences (NCATS), 2010)
